Measurements reported in PubChem BioAssay AID1259323 (Peter MacCallum Cancer Centre, 2017).
Shown is one part, drawn at random, of 715 reagents tested. In the full data, 91 (13%) were called active. 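Active pools lower the sustained TRPV4 phase but spare the early PAR2 peak; PAR2 agonist and dose are not stated; pools repeat across wells.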 No sequences are given here. Not given: the amount of reagent, the time to read-out.

Test: 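Kinase knock-downs that weaken TRPV4 calcium entry after PAR2 activation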 (primary screen)
Cells: human HEK293 cells stably carrying inducible TRPV4
Reagent: siRNA pool against human genes
Treatment: PAR2 activation; agonist identity and dose not given
Detection: 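Real-time Fura-2 calcium after PAR2 activation; early peak and later plateau each as % of mock-transfected wells on the plate, mean of two plates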
Direction: TRPV4 plateau calcium, % of mock: higher = stronger sustained TRPV4 calcium entry than mock; PAR2 peak calcium, % of mock: higher = stronger early PAR2 calcium response than mock
Active means: 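Active when sustained TRPV4 plateau calcium falls below 90% of mock while the early PAR2 peak remains above 79% of mock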

Knock-down of MOK (GeneID 5891) resulted in: TRPV4 plateau calcium, % of mock 109; PAR2 peak calcium, % of mock 108; inactive. For CMPK1 (GeneID 51727), the values are TRPV4 plateau calcium, % of mock 85.1; PAR2 peak calcium, % of mock 90.4; active. PLK4 (GeneID 10733) showed TRPV4 plateau calcium, % of mock 88.4; PAR2 peak calcium, % of mock 95.4; active. After knock-down of CRIM1 (GeneID 51232), the screen gave TRPV4 plateau calcium, % of mock 107; PAR2 peak calcium, % of mock 101; inactive. Silencing of NUP62 (GeneID 23636) resulted in: TRPV4 plateau calcium, % of mock 89.5; PAR2 peak calcium, % of mock 80.2; active. Against NME5 (GeneID 8382), the entry reads TRPV4 plateau calcium, % of mock 96.7; PAR2 peak calcium, % of mock 93; inactive.

Silencing of MAP3K15 (GeneID 389840) gave: TRPV4 plateau calcium, % of mock 103; PAR2 peak calcium, % of mock 101; inactive. TESK2 (GeneID 10420) showed TRPV4 plateau calcium, % of mock 110; PAR2 peak calcium, % of mock 104; inactive. MAPK8 (GeneID 5599) showed TRPV4 plateau calcium, % of mock 94.8; PAR2 peak calcium, % of mock 93.1; inactive. AURKA (GeneID 6790) scored TRPV4 plateau calcium, % of mock 104; PAR2 peak calcium, % of mock 97.2; inactive. BMPR1B (GeneID 658) scored TRPV4 plateau calcium, % of mock 117; PAR2 peak calcium, % of mock 109; inactive. Depletion of CDKL4 (GeneID 344387) came out at: TRPV4 plateau calcium, % of mock 102; PAR2 peak calcium, % of mock 101; inactive.

PASK (GeneID 23178) gave TRPV4 plateau calcium, % of mock 99; PAR2 peak calcium, % of mock 95.8; inactive. CDK11B (GeneID 984) gave TRPV4 plateau calcium, % of mock 96.7; PAR2 peak calcium, % of mock 97.2; inactive. After knock-down of PIP5K1A (GeneID 8394), the record shows TRPV4 plateau calcium, % of mock 111; PAR2 peak calcium, % of mock 108; inactive. Depletion of FCSK (GeneID 197258) resulted in: TRPV4 plateau calcium, % of mock 108; PAR2 peak calcium, % of mock 112; inactive. With knock-down of GOLGA5 (GeneID 9950), the screen gave TRPV4 plateau calcium, % of mock 109; PAR2 peak calcium, % of mock 105; inactive. IGF1R (GeneID 3480) showed TRPV4 plateau calcium, % of mock 86.1; PAR2 peak calcium, % of mock 85.3; active.

With knock-down of ROR2 (GeneID 4920) the results were TRPV4 plateau calcium, % of mock 103; PAR2 peak calcium, % of mock 82.4; inactive. PRKAA2 (GeneID 5563) gave TRPV4 plateau calcium, % of mock 86.7; PAR2 peak calcium, % of mock 89.6; active. Depletion of AK7 (GeneID 122481) gave: TRPV4 plateau calcium, % of mock 100; PAR2 peak calcium, % of mock 98.1; inactive. After knock-down of NEK7 (GeneID 140609), the screen gave TRPV4 plateau calcium, % of mock 78.6; PAR2 peak calcium, % of mock 86.6; active. After knock-down of RIPK4 (GeneID 54101) the results were TRPV4 plateau calcium, % of mock 104; PAR2 peak calcium, % of mock 99.6; inactive. Against PIK3R3 (GeneID 8503), the entry reads TRPV4 plateau calcium, % of mock 101; PAR2 peak calcium, % of mock 95.5; inactive.

Silencing of CSNK2A1 (GeneID 1457) came out at: TRPV4 plateau calcium, % of mock 101; PAR2 peak calcium, % of mock 97.6; inactive. ACVRL1 (GeneID 94) scored TRPV4 plateau calcium, % of mock 85; PAR2 peak calcium, % of mock 96; active. Knock-down of NPR2 (GeneID 4882) came out at: TRPV4 plateau calcium, % of mock 88.6; PAR2 peak calcium, % of mock 92.3; active.

Individual results from the list:
PIP5K1A (GeneID 8394), PAR2 peak calcium, % of mock → 108
CDKL4 (GeneID 344387), outcome: inactive
Under “outcome”, FCSK (GeneID 197258) has inactive
